# pIC50: −log10 of the molar value. Some results were stated once for a whole list of compounds, not compound by compound.
# By UniProt entry, the sequences of proteins in these tests, tags left out. Residues count along the entry.
# UniProt P00533, 25-1210: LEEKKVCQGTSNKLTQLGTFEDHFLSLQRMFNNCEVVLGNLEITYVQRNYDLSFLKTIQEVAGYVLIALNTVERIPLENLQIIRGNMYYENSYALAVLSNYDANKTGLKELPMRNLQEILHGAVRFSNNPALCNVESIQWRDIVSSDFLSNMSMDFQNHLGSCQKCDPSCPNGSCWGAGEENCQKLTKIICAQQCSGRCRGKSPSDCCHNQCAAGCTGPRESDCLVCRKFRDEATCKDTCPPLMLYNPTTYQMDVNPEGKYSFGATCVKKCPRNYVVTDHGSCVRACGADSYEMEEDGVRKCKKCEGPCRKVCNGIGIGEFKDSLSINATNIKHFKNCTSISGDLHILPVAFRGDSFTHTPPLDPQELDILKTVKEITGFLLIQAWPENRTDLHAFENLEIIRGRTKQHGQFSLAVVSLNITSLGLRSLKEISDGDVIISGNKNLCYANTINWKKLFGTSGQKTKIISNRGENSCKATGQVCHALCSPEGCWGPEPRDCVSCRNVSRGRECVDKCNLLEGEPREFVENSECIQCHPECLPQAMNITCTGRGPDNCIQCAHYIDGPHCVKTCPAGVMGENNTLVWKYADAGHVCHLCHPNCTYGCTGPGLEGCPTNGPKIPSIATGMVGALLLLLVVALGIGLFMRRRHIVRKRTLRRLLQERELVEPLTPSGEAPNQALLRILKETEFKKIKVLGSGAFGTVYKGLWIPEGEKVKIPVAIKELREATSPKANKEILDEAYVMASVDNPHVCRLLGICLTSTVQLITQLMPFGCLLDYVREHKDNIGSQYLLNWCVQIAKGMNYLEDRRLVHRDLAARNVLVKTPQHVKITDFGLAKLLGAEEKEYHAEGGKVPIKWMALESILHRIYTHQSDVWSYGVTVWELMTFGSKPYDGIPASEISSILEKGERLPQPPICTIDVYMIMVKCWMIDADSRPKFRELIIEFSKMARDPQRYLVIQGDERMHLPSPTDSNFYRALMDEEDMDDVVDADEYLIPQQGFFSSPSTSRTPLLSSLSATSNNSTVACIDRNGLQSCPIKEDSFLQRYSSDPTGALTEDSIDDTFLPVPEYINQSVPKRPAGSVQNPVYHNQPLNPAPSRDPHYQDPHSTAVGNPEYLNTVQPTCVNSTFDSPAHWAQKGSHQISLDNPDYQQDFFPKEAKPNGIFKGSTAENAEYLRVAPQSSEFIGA
# Target: T1, EGF-R kinase (Homo sapiens, UniProt P00533)
# T1 construct: Kinases are expressed as either kinase domains or full length constructs; made in house
# Assay: Kinase inhibition assay (33P transfer from ATP to poly(Glu, Tyr) substrate on microtiter plates)
# Format: biochemical
# Details: read-out: IC50, inhibitory activity against the EGF-R kinase
row,SMILES,pIC50
1,"CCOP(C)(=O)c1cc2c(Nc3ccc(F)c(Cl)c3)ncnc2cc1OC (centres unmarked) [Example 7, 4-[(3-Chloro-4-fluorophenyl)amino]-7-methoxy-6-(ethyl-methylphosphinate)-quinazoline]",5.80 to 7.22
2,"CCOP(=O)(OCC)c1cc2c(Nc3ccc(F)c(Cl)c3)ncnc2cc1OC [Example 5, 4-[(3-Chloro-4-fluorophenyl)amino]-7-methoxy-6-(diethylphosphonate)-quinazoline]",5.80 to 7.22

# From US7238679B2, “Heterocycles and uses thereof” (Ariad Pharmaceuticals, Inc., priority 2002, dated 2007)
